From PMC8068134 (Toxins, 2021)

System: Paucibacter toxinivorans (2C20)
Conditions: Individually added cyanopeptide, 10 μg/mL, 7 days of incubation

Row | Compound | Biodegradation over 7 days
1 | CSCC[C@@H]1NC(=O)[C@@H]2CSC(=N2)[C@@H](Cc2ccccc2)NC(=O)c2csc(n2)CNC(=O)[C@H]2N=C1O[C@@H]2C [AC-D, aerucyclamide D] | completely degraded
2 | CC[C@H](C)[C@@H]1NC(=O)[C@@H]2CSC(=N2)[C@@H]([C@@H](C)CC)NC(=O)c2csc(n2)CNC(=O)[C@H]2N=C1O[C@@H]2C [AC-A, aerucyclamide A] | completely degraded
